# Screening data

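Living-cell ATP in ovarian and cervical tumor lines is read as light output two days after treatment, as a measure of cell killing.
Each compound was tested at five concentrations, including 0.46, 2.3 and 57.5 µM as the top dose.
The number is the fitted AC50 potency, and a lower value means stronger cell killing.
Calls follow an activity score built from curve class and fitted AC50: 40 to 100 is active, 1 to 39 is inconclusive, and 0 is inactive.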

Values are in µM.
All entries here are filed as inconclusive.
Only part of the assay is shown, chiefly results filed as inconclusive.
Potencies fitted to partial, single-point or poorly fitting curves are rough.
The first word of each remark tells which way the curve ran; it can be opposite to the aim of the assay.
Activity scores are not listed here.

compound | setting | fitted potency (µM) | remark
COc1cc2c(cc1OC)[C@@H]1[C@H](O)[C@@H](OC)C=C3CCN(C2)[C@H]31 | Hek293T; control line for the selectivity index | 14.13 | cytotoxic, partial curve, poor fit
COc1cc2c(cc1OC)[C@@H]1[C@H](O)[C@@H](OC)C=C3CCN(C2)[C@H]31 | C33A | 22.39 | cytotoxic, single point
COc1cc2c(cc1OC)[C@@H]1[C@H](O)[C@@H](OC)C=C3CCN(C2)[C@H]31 | OV90 | 7.08 | cytotoxic, partial curve, poor fit
COc1cc2c(cc1OC)[C@@H]1[C@H](O)[C@@H](OC)C=C3CCN(C2)[C@H]31 | CASKI | 12.59 | cytotoxic, single point
COc1cc2c(cc1OC)[C@@H]1[C@H](O)[C@@H](OC)C=C3CCN(C2)[C@H]31 | CAOV3 | 14.13 | cytotoxic, single point
COc1cc2c(cc1OC)[C@@H]1[C@H](O)[C@@H](OC)C=C3CCN(C2)[C@H]31 | Tov-21-G | 15.85 | cytotoxic, single point
COc1cc2c(cc1OC)[C@@H]1[C@H](O)[C@@H](OC)C=C3CCN(C2)[C@H]31 | PA-1 | 7.943 | cytotoxic, partial curve, poor fit
CN1CCN(C(=O)c2ccc3cc(CCNc4ncnc5ccc(C#N)cc45)ccc3c2)CC1 | PA-1 | 0.8913 | cytotoxic, full curve, poor fit
CN1CCN(C(=O)c2ccc3cc(CCNc4ncnc5ccc(C#N)cc45)ccc3c2)CC1 | JEG-3 | 22.39 | rising, single point
CN1CCN(C(=O)c2ccc3cc(CCNc4ncnc5ccc(C#N)cc45)ccc3c2)CC1 | OV90 | 8.912 | cytotoxic, single point
CN1CCN(C(=O)c2ccc3cc(CCNc4ncnc5ccc(C#N)cc45)ccc3c2)CC1 | SKOV3 | 7.08 | cytotoxic, single point
C[C@H](N)C(=O)c1ccccc1 | OV90 | 112.2 | cytotoxic, single point
C[C@H](N)C(=O)c1ccccc1 | HeLa | 19.95 | -
COc1ccc2c(c1OC)C(=O)O[C@@H]2[C@H]1c2c(cc3c(c2OC)OCO3)CCN1C | CAOV3 | 1.122 | cytotoxic, single point
COc1ccc2c(c1OC)C(=O)O[C@@H]2[C@H]1c2c(cc3c(c2OC)OCO3)CCN1C | SKOV3 | 7.08 | cytotoxic, single point
COc1ccc2c(c1OC)C(=O)O[C@@H]2[C@H]1c2c(cc3c(c2OC)OCO3)CCN1C | CASKI | 1.413 | cytotoxic, single point
C=C1C[C@@H]2[C@H](CC[C@]3(C)C(=O)CC[C@@H]23)[C@@]2(C)C=CC(=O)C=C12 | OV90 | 15.85 | cytotoxic, partial curve, poor fit
C=C1C[C@@H]2[C@H](CC[C@]3(C)C(=O)CC[C@@H]23)[C@@]2(C)C=CC(=O)C=C12 | CAOV3 | 22.39 | cytotoxic, partial curve, poor fit
C=C1C[C@@H]2[C@H](CC[C@]3(C)C(=O)CC[C@@H]23)[C@@]2(C)C=CC(=O)C=C12 | JEG-3 | 39.81 | cytotoxic, partial curve, poor fit
C=C1C[C@@H]2[C@H](CC[C@]3(C)C(=O)CC[C@@H]23)[C@@]2(C)C=CC(=O)C=C12 | Es-2 | 39.81 | cytotoxic, single point
C=C1C[C@@H]2[C@H](CC[C@]3(C)C(=O)CC[C@@H]23)[C@@]2(C)C=CC(=O)C=C12 | Hek293T; control line for the selectivity index | 39.81 | cytotoxic, partial curve, poor fit
O=C(NNc1ccccc1)c1ccncc1 | SKOV3 | 2.512 | rising, partial curve, poor fit
O=C(NNc1ccccc1)c1ccncc1 | Hek293T; control line for the selectivity index | 17.78 | cytotoxic, single point
O=C(NNc1ccccc1)c1ccncc1 | Es-2 | 10 | cytotoxic, partial curve
O=C(NNc1ccccc1)c1ccncc1 | PA-1 | 28.18 | cytotoxic, single point
O=C(NNc1ccccc1)c1ccncc1 | Tov112D | 14.13 | cytotoxic, partial curve
COc1ccc(C(=O)NCc2cc(C(C)C)no2)cc1OC1CCN(C)CC1 | SKOV3 | 19.95 | rising, single point
CC(=O)O[C@]1(C(C)=O)CC[C@H]2[C@@H]3C=C(Cl)C4=CC(=O)[C@@H]5C[C@@H]5[C@]4(C)[C@H]3CC[C@@]21C | HeLa | 28.18 | cytotoxic, single point
CC(=O)O[C@]1(C(C)=O)CC[C@H]2[C@@H]3C=C(Cl)C4=CC(=O)[C@@H]5C[C@@H]5[C@]4(C)[C@H]3CC[C@@]21C | C33A | 31.62 | cytotoxic, single point

2 of the entries, repeated:

compound	setting	fitted potency (µM)	remark
CN1CCN(C(=O)c2ccc3cc(CCNc4ncnc5ccc(C#N)cc45)ccc3c2)CC1	PA-1	0.8913	cytotoxic, full curve, poor fit
C=C1C[C@@H]2[C@H](CC[C@]3(C)C(=O)CC[C@@H]23)[C@@]2(C)C=CC(=O)C=C12	Es-2	39.81	cytotoxic, single point

From PubChem BioAssay record AID1345084 (NCATS, 2018).